Assay results taken from doi:10.1101/617910.
These are yes or no findings as the source states them, for the method shown. Some entries that bind do so weakly or less than the wild type.

Protein sequences, listed by entry. Tags and fused reporters are not part of them.
UniProt P0CX27: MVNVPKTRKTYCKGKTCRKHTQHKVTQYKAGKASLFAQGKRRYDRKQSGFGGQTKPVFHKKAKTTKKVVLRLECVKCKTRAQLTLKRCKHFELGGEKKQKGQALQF
UniProt P41819: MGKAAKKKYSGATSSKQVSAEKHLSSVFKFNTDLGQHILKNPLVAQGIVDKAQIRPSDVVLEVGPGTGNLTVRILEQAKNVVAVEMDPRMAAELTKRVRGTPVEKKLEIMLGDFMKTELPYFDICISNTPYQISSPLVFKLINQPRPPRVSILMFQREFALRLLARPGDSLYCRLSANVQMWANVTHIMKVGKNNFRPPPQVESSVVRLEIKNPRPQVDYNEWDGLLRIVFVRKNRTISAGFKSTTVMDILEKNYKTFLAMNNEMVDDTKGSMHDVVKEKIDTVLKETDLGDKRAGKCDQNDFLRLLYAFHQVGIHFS

Molecular target: Rpl42 (yeast (endogenous in the purified pre-ribosomes)) (UniProt P0CX27)
Assay: cryo-EM structure

Substance: Dim1 (from UniProt P41819 1-318)
- binding: binds
